Experimental data published in patent publication US20230263787A1, “ENHANCED MITOCHONDRIAL RESPONSE WITH THIOZOLIDINEDIONE, PIOGLITAZONE OR ROSIGLITAZONE” (priority 2020, published 2023).
For at least one compound, name, drawing or mass did not settle the structure.

Experiments:
COX10Adv mutant mice = test: Focal lysolecithin demyelination of dorsal columns in COX10Adv mutant mice; assay type: in vivo, mouse
complex IV = target: T1, complex IV (Mus musculus, UniProt P00397); assay type: cell-based; conditions: SA 100 µM for 16 hours
T1 construct: endogenous in cells; host or cells: primary unmyelinated dorsal root ganglia (DRG) neurons from C57BL/6 mouse pups

In the case of CCc1ccc(CCOc2ccc(CC3SC(=O)NC3=O)cc2)nc1 (centres unmarked) [pioglitazone], the axonal mitochondrial content (COX10Adv mutant mice; dietary pioglitazone for 6 weeks) is reported as “significantly increased”, the “axon bulb formation within the demyelinated area” value (COX10Adv mutant mice; pioglitazone in diet 6 weeks (120 mg/Kg diet) before demyelination, 3 days post lesioning, vs untreated mutants) is reported as “significantly decreased” and the “percentage of DRG neurons with PGC1-alpha positive nuclei” value (COX10Adv mutant mice; pioglitazone in diet 6 weeks, not demyelinated, vs chow diet) is reported as “significantly increased”. For the same molecule, the “PGC1-alpha positive DRG neuronal nuclei” value (COX10Adv mutant mice; pioglitazone treated and demyelinated vs untreated and demyelinated mutants) was “further increased” and the “inhibition of complex IV by SA in DRG neurons exposed to pioglitazone” value (complex IV) was “similarly effective”.
